Experimental findings from publication PMC6003198 are described below.

Chains of the proteins cited; added tags and fusions are not shown. Lines headed by an entry give the natural chain unless they say otherwise; changes in a name come on top. Residues count along the entry.
UniProt P38647, residues 47-679: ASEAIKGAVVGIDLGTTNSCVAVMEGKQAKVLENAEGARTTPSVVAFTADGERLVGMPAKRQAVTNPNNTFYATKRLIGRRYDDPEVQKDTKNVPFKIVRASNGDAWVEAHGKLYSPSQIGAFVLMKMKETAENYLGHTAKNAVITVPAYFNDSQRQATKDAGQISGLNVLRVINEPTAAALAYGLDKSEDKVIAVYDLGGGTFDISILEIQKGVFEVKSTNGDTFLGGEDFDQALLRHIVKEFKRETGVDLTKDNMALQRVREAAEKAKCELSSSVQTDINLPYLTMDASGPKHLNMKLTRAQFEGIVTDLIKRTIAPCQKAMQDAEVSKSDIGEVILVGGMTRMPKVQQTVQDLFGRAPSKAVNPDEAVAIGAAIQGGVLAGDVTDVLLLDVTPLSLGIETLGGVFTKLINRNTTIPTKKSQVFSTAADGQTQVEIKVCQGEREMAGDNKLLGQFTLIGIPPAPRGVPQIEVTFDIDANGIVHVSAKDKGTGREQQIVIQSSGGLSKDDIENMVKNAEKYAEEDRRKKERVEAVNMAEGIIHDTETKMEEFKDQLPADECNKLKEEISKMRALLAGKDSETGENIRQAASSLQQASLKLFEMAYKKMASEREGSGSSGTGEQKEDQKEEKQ
UniProt Q60932: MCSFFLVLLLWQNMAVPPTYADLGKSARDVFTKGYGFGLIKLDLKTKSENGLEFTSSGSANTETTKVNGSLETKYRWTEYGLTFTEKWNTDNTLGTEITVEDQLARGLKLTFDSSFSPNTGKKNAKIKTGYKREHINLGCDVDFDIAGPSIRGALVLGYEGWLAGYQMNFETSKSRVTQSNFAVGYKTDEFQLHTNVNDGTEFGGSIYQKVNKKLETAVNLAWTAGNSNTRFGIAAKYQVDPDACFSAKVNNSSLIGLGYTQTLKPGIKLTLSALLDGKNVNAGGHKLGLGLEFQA

This experiment concerns the target glucose-regulated protein 75 (mouse (endogenous in cultured mouse podocytes)) (UniProt P38647). Description: co-IP; anti-Grp75 antibody (D13H4) immobilised on AminoLink Plus Coupling Resin, incubated overnight with lysates of cultured mouse podocytes (control, ADR-treated or Ang II-treated); eluate analysed by western blotting; normal rabbit IgG as negative control.

These are yes or no findings as the source states them, for the method shown. In cells and extracts the contact can be indirect. A result given as binding can be weak or reduced; the word gives no strength.

With “voltage-dependent anion channel 1 (from UniProt Q60932)”, the binding result was “binds”.
